Measurements reported in PubChem BioAssay AID1508597 (Cure First, 2020)

- Purpose: 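Survival screen with siRNA in ovarian cancer cells derived from patients, with or without rucaparib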 (primary screen)
- System: human ovarian carcinoma lines grown from tumours: OCI-P5x (papillary serous) and OCI-C5x (clear cell)
- Knock-down reagent: siRNA pool against human genes, 1.25 pmol siRNA per well
- Time to read-out: 72 h or 96 h, depending on the cell culture
- Conditions: rucaparib 20 µM (about IC30) or vehicle, present until read-out
- Rucaparib or vehicle: Rucaparib
- Cell line: OCI-P5x (serous)
- Detection: 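ATP luminescence measured at 72 or 96 h according to the culture, then normalised and expressed as percent viability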
- Scale: viability, normalised: higher = more viable cells remaining
- Call rule: 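a well counts as a hit if its normalised viability is under 80 percent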
- Meaning of the calls: active = viability under 80%; inactive = viability 80% or more
Shown is an unselected part of the about 2,100 reagents, in one setting of the screen. 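Calls flag viability under 80% in either arm, not effects specific to rucaparib; the reference for percent is not stated.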 Some reagents were tested in more than one well and are listed for each. Not stated in the record: the 100% reference.

gene	technical replicate	viability, normalised (%)	Call
H4C6	1	67.8	active
H4C6	2	65.7	active
H4C6	3	64.3	active
SIRT6	1	53.6	active
SIRT6	1	89.3	inactive
SIRT6	2	64.4	active
SIRT6	2	101	inactive
SIRT6	3	50.1	active
SIRT6	3	86.8	inactive
OXSM	1	79.1	active
OXSM	2	59	active
OXSM	3	90.2	inactive
PRMT8	1	45.1	active
PRMT8	2	50.7	active
PRMT8	3	53.6	active

An excerpt of the results above, for reference:
gene	technical replicate	viability, normalised (%)	Call
OXSM	3	90.2	inactive
PRMT8	1	45.1	active

Continued.
gene	technical replicate	viability, normalised (%)	Call
FTO	1	54.3	active
FTO	2	42	active
FTO	3	87	inactive
DTYMK	1	80.5	inactive
DTYMK	2	105	inactive
DTYMK	3	99.5	inactive
MAP2K3	1	82.3	inactive
MAP2K3	1	53.4	active
MAP2K3	2	77.5	active
MAP2K3	2	51.1	active
MAP2K3	3	82.9	inactive
MAP2K3	3	62.8	active
